This is one part of the list.
The molecules below were run on T1, CTL2-GFP (C. trachomatis L2/434/Bu, GFP-expressing). Conditions: bulk GFP, single well; 28.5 h, 10 µM; inhibitor.
T1 construct: L2/434/Bu, GFP-expressing
Design: species or system HeLa; Intracellular C. trachomatis growth in HeLa cells, bulk GFP fluorescence relative to DMSO

Point of comparison: `NC(=O)C1CCN(C2CC(=O)N(c3cccc([N+](=O)[O-])c3)C2=O)CC1` (stereo not drawn) [CBK265555], “% of control remaining” value 109.308%. Against it:
- CC1CCCN(Cc2ccccc2[N+](=O)[O-])C1 (stereo not drawn) [CBK261862] — lower, 82.1864%
- O=C(NC(Cc1ccsc1)c1nccs1)C1CC2C=CC1O2 (stereo not drawn) [CBK285096] — lower, 105.672%
- COc1cccc(C2(O)CCCC3CN(C(C)=O)CC32)c1 (stereo not drawn) [CBK283242] — higher, 122.989%
- CCCc1cc(C(N)=O)cc(CCC)c1OCC [CBK015537] — lower, 89.3318%
- COc1cc(OC)cc(C(=O)Nc2cc(C)c3c(=O)oc4ccccc4c3n2)c1 [CBK291221] — higher, 115.863%
- CC1(C)CC(=O)C2=C(C1)Nc1ncnn1C2c1ccccc1F (stereo not drawn) [CBK266446] — lower, 92.7517%
- C[N+]1(c2ccccc2)CCC(N)=N1 (stereo not drawn) [CBK262213I] — lower, 103.047%
- Cc1cccc(-c2noc(C)c2C(=O)NCCn2ccnc2C)c1 [CBK282633] — lower, 97.6758%
- CC(C)Oc1cncc(Cl)n1 [CBK113321] — lower, 106.674%
- Cc1onc(-c2ccccc2)c1C(=O)NCc1ccccc1 [CBK200116] — higher, 111.167%
- Cc1ccc(CN(CCN(C)C)Cc2c(C)nn(C(C)C)c2C)o1 [CBK283235] — higher, 129.423%
- O=C(O)CCSc1cccc(C(F)(F)F)c1 [CBK012986] — lower, 105.769%
- O=C(CN(c1ccccc1)S(=O)(=O)c1ccccc1[N+](=O)[O-])Nc1ccccc1 [CBK263777] — lower, 105.856%
- COc1ccc(C(=O)NC(NC(=S)Nc2cccc3cccnc23)C(Cl)(Cl)Cl)cc1 (stereo not drawn) [CBK261028] — lower, 54.8995%
- CCOc1ccc(NC(=O)c2ccc(S(=O)(=O)N(C)C)cc2)c([N+](=O)[O-])c1 [CBK263396] — higher, 124.816%
- O=c1n(-c2ccc(OC(F)(F)F)cc2)ccn1S(=O)(=O)c1ccccc1 [CBK106655] — lower, 100%
- O=c1[nH]c2c(-c3ccccc3)nnn2c2ccccc12 [CBK288047] — higher, 123.491%
- CN(c1ncc(-c2cc3ccccc3o2)cc1C(=O)NCC(F)(F)F)S(C)(=O)=O [CBK106479] — higher, 134.095%
- CC(C)(C)OC(=O)N1CCC(NCc2ccccn2)CC1 [CBK304603] — higher, 123.411%
- CCOC(=O)N1CCC(NC(=O)N2CCCCC2CO)CC1 (stereo not drawn) [CBK155991] — lower, 106.129%
- CC(=O)Nc1cc(C(=O)CSc2nnnn2-c2ccc(C)c(C)c2)ccc1O [CBK295143] — higher, 165.141%
- COc1cc(C2CC(=O)N(c3cc(C)on3)C(=O)C2)cc(OC)c1OC [CBK006810] — higher, 140.212%
- COc1ccccc1-c1nccnc1NCc1cc(OC)c(OC)c(OC)c1 [CBK036642] — higher, 187.423%
- CCOc1ccc2nc(SCC(=O)Nc3c(C)n(C)n(-c4ccccc4)c3=O)sc2c1 [CBK267229] — higher, 118.286%
- Cc1c(C(=O)N(C)CC(C)C)nnn1-c1ccc2ncccc2c1 [CBK305161] — lower, 98.0072%
- O=C(CSc1nnc(-c2ccco2)[nH]1)c1ccc(O)cc1O [CBK264392] — higher, 118.745%
- O=C(Nc1cc(Cl)nc(Cl)c1)N(Cc1ccc(-c2ccccc2)cc1)CC1CCNCC1 [CBK049794] — lower, 37.4504%
- NS(=O)(=O)c1ccc(NC(=O)c2ccc(NC(=O)C3COc4ccccc4O3)cc2)cc1 (stereo not drawn) [CBK266573] — higher, 135.486%
- Cc1nc2ccc(C(=O)NC(C)(C)CN3CCCC(C)C3)cc2[nH]1 (stereo not drawn) [CBK282629] — higher, 143.281%
- CCN1C(=O)CC2(C1=O)C(=O)N(Cc1cccc(CN3C(=O)CCC3=O)c1)c1ccccc12 (stereo not drawn) [CBK075508] — higher, 138.819%
- CCOC(=O)Cn1ccc2ccnc(-c3cccs3)c21 [CBK285200] — higher, 113.3%
- COc1ccc(-c2cn3ccnc3c(N3CCCCC3CO)n2)cc1OC (stereo not drawn) [CBK066230] — higher, 134.463%
- CCC(=O)N1CCN(c2ccccc2NC(=O)c2ccc(C#N)cc2F)CC1 [CBK270110] — higher, 116.523%
- O=S(=O)(c1ccc(Cl)s1)N1CCN(c2ccccn2)CC1 [CBK270305] — lower, 77.2133%
- O=C(O)C[C@@H]1CCN(C(=O)Nc2ccccc2)C[C@@H]1CCN1CCCCC1 [CBK288782] — higher, 117.766%
- CCS(=O)(=O)Nc1cc(C(F)(F)F)ccc1Cl [CBK111339] — lower, 85.7976%
- COc1cncc(-c2ccc(N3CCN(c4ccccc4C#N)CC3)nc2)c1 [CBK037738] — higher, 140.383%
- SC1=NC2(CCCC2)NN1c1ccc(Cl)cc1 [CBK288391] — higher, 169.85%
- Cc1cc(OCCCC(=O)Nc2cccc([N+](=O)[O-])c2)cc(C)c1Cl [CBK267978] — higher, 121.455%
- NS(=O)(=O)c1ccc(NC2=NC(=O)C(CC(=O)Nc3ccc(Br)cc3)S2)cc1 (stereo not drawn) [CBK266616] — lower, 104.852%
- O=c1nc(NS(=O)(=O)c2ccc(Oc3ccccc3)cc2)c(F)c[nH]1 [CBK067571] — higher, 123.995%
- CC(C)OC(=O)C(NC(=O)OC(C)(C)C)c1ccccc1 (stereo not drawn) [CBK170399] — lower, 99.2269%
- CCN(CC)C(=O)c1ccsc1NS(=O)(=O)c1cc(Br)ccc1OC [CBK042327] — higher, 123.326%
- Cc1cc(C)n(C(C)C(=O)N(C)CCn2ccnc2C)n1 (stereo not drawn) [CBK281759] — higher, 151.48%
- O=C(NCC(c1ccccc1)c1ccccc1)N1CCN(c2ccccc2)CC1 [CBK155197] — lower, 108.318%
- CCc1nc2ccc(C(=O)NCCNC(C)=O)cn2c1N(C)Cc1ccc(NC(C)=O)cc1 [CBK145612] — lower, 100%
- CC(=O)N/C(=C/c1ccc([N+](=O)[O-])cc1)C(=O)Nc1cccc(C(=O)O)c1 [CBK264495] — lower, 105.547%
- COc1ccc(-c2n[nH]cc2/C=N/NC(=O)c2cc(Br)ccc2O)c(OC)c1 [CBK262067] — higher, 111.673%
- CN(c1ncccc1C#N)C1CCN(CCC(N)=O)CC1 [CBK016793] — higher, 149.885%
- Nn1cnn2c(SCC(=O)c3cccs3)nnc12 [CBK263184] — lower, 108.391%
- Cc1cc(C)c2c(NCc3ccc(C)o3)n[nH]c2n1 [CBK284621] — lower, 93.5843%
- COc1c(C)cc(Br)cc1C(=O)Nc1ccccc1-c1nc2ccccc2s1 [CBK267155] — higher, 156.825%
- CCOc1cccc(C(=O)NN2CCN(C)CC2)c1 [CBK268184] — higher, 125.466%
- Cc1ccc(S(=O)(=O)NC(=O)c2cc(C)n(-c3ccc(N(C)C)cc3)c2C)cc1 [CBK296085] — lower, 101.27%
- C#CCOc1cncc(Cl)n1 [CBK113370] — higher, 123.661%
- COc1cc(NC(=O)c2c(C)[nH]c(=O)[nH]c2=S)cc(C(F)(F)F)c1 [CBK115495] — higher, 117.125%
- Cc1ccc(-c2ccccc2CC2(C(=O)Nc3cccc(C(N)=O)c3)CCOCC2)c(C)c1 [CBK286423] — higher, 118.134%
- CN(CCN1CCCCC1)C(=O)C1CC(=O)Nc2ccccc21 (stereo not drawn) [CBK282729] — higher, 127.989%
- O=C1CN(C(=O)CCn2c(C(F)(F)F)cc3cccnc32)CCN1 [CBK284888] — higher, 140.211%
- COc1ncc(-c2cnc3[nH]c(=O)n(CC4CCOCC4)c3n2)cn1 [CBK064898] — higher, 176.444%
- COCCNC(=O)c1nn2c(c1Br)NC(c1cccs1)CC2C(F)(F)F (stereo not drawn) [CBK307178] — higher, 136.468%
- O=C(O)c1cc(C(=O)O)n(Cc2ccccc2Cl)n1 [CBK269381] — higher, 134.032%
- Cc1ccc(C(=O)C2=C(O)C(=O)N(Cc3cccnc3)C2c2cccc(Oc3ccccc3)c2)o1 (stereo not drawn) [CBK264619] — higher, 119.114%
- Cc1ccc(S(=O)(=O)N(CC(=O)N/N=C\c2ccc3c(c2)OCO3)c2cccc3cccnc23)cc1 [CBK262478] — lower, 72.08%
- O=C(Nc1cccnc1)N1CCN(CCc2ccccc2)CC1 [CBK158937] — lower, 78.0319%
- CCCC/C=C/c1cnc(N)c(Nc2ccc(OC)cc2C)n1 [CBK064090] — higher, 193.676%
- Cc1cc(C)n(C2CN(C(=O)NCCCOc3cccnc3)C2)n1 [CBK307632] — higher, 121.332%
- COc1ccc(C=O)cc1CSc1nc2ccccc2[nH]1 [CBK266209] — higher, 137.52%
- O=C(C1=C(O)C(=O)N(CCCN2CCOCC2)C1c1ccc(Cl)c(Cl)c1)c1cccs1 (stereo not drawn) [CBK264565] — lower, 107.819%
- Cc1nnc(CN(C)C2CCN(CC3CCCC3)C2)n1C (stereo not drawn) [CBK304851] — lower, 107.955%
- COc1cc(-c2cncc(N[C@@H](C)c3ccccc3)n2)cc(OC)c1OC [CBK065551] — higher, 118.108%
- COc1ccc(C(NC(=O)NNC(=O)CCC(=O)c2ccc(F)cc2)c2ccccc2C)cn1 (stereo not drawn) [CBK083659] — higher, 173.317%
- CN(C)C(=O)c1ccc(-c2ccc3c(c2)COC(C2CCN(C(=O)Cc4ccc(C#N)cc4)CC2)O3)cc1 (stereo not drawn) [CBK149760] — higher, 135.16%
- CNC(=O)C1(Cc2ccc(-c3cccc(C)c3)cc2)CCN(C(=O)C(C)(C)C)CC1 [CBK285755] — higher, 114.521%
- CCOC(=O)C1N(C)C(=O)C(Cc2c(Cl)cccc2Cl)=C(C)N1C (stereo not drawn) [CBK112643] — lower, 86.7683%
- COc1cc2c(c(OC)c1OC)C1(CCN(Cc3ccc(S(C)(=O)=O)cc3)CC1)NC(=O)C2 [CBK040014] — higher, 116.423%
- Cc1ccc(OCC(=O)NC(=S)Nc2ccc(Cl)c(-c3nc4ncccc4o3)c2)cc1 [CBK263930] — lower, 101.273%
